Reference: PMC3716696 (PLoS ONE, 2013)
Residues, ends and D or L forms follow the SMILES beside them.

Experiment: Isotope dilution MS (IDMS) of endogenous SP and SP fragments in spinal cord
Format: in vivo
Conditions: endogenous level, WT mouse spinal cord, IDMS with heavy-labelled peptides, LC-MS/MS after SCX, N = 4

SMILES | Absolute quantity in the spinal cord, SPC [pmol/g]
N=C(N)NCCC[C@H](N)C(=O)N1CCC[C@H]1C(=O)N[C@@H](CCCCN)C(=O)N1CCC[C@H]1C(=O)N[C@@H](CCC(N)=O)C(=O)N[C@@H](CCC(N)=O)C(=O)N[C@@H](Cc1ccccc1)C(=O)O [SP1–7] (H-RPKPQQF-OH) | 1.6 ± 0.5
CSCC[C@H](NC(=O)[C@H](CC(C)C)NC(=O)CNC(=O)[C@H](Cc1ccccc1)NC(=O)[C@H](Cc1ccccc1)NC(=O)[C@H](CCC(N)=O)NC(=O)[C@H](CCC(N)=O)NC(=O)[C@@H]1CCCN1C(=O)[C@H](CCCCN)NC(=O)[C@@H]1CCCN1C(=O)[C@@H](N)CCCNC(=N)N)C(N)=O [SP, Substance P] | 105.9 ± 8.5
